Experimental data: US12383530B2, “Pharmaceutical combination for the treatment of melanoma” (Piramal Enterprises Limited, priority 2013, dated 2025)
For at least one compound, name, drawing or mass did not settle the structure.

What was measured:
metastatic melanoma = details: cited from earlier work
[1] = test system: A375R cell line (vemurafenib resistant); assay: CCK8 live cell dehydrogenase assay, A375R (384-well, Example 2); assay type: cell-based, human; details: single agent, 48 h
Method: The cytotoxicity studies using all the test compounds as single agents and in combinations were carried out using the CCK8 live cell dehydrogenase assay.
Logarithmically growing human BRAFV600E mutated melanoma cells were seeded at a density of 1500 cells/well in 30 μL of Dulbecco's Modified Eagle medium medium (DMEM) in 384-well plate (Corning, USA) using Tecan automated platform (FreedomEvo Liquid handling system) and incubated for about 12-16 h to allow the cells to adhere. The cells were then treated for 48 h with different doses of compound A and anticancer agents (vemurafenib or dabrafenib or trametinib) as monotherapy (used singly) and in combinations. Studies using different dosages were carried out for each combination (e.g. combination of compound A and vemurafenib). […]
The plates were incubated for 48 h in humidified 5% CO2 incubator at 37°±1° C. […] The toxicity was determined by measuring the absorbance on Tecan Sapphire multi-fluorescence micro-plate reader at a wavelength of 450 nm normalized to controls. […]
The potency of the combination was quantified using Calcusyn software (Biosoft, Ferguson, MO, USA) which is based on the Chou Talalay method that calculates a combination index (CI) with CI values less than 1 indicating synergy.

For `CN(C)/N=N/c1[nH]cnc1C(N)=O` [dacarbazine], the median overall survival (metastatic melanoma; after initiation of the treatment) is listed as 5-8 months and the response rate (metastatic melanoma; metastatic melanoma patients) is listed as 7-12%.

For `CCCS(=O)(=O)Nc1ccc(F)c(C(=O)c2c[nH]c3ncc(-c4ccc(Cl)cc4)cc23)c1F` [vemurafenib], the “sensitivity of the cell line (dose response curve)” value [1] was “resistant”.
